Results on five molecules are retold here after PMC11267380, “USP25 Elevates SHLD2‐Mediated DNA Double‐Strand Break Repair and Regulates Chemoresponse in Cancer” (Advanced Science, 2024).

Sequences of proteins named here, by UniProt entry; tags and fusion partners are left off.
UniProt Q9UHP3: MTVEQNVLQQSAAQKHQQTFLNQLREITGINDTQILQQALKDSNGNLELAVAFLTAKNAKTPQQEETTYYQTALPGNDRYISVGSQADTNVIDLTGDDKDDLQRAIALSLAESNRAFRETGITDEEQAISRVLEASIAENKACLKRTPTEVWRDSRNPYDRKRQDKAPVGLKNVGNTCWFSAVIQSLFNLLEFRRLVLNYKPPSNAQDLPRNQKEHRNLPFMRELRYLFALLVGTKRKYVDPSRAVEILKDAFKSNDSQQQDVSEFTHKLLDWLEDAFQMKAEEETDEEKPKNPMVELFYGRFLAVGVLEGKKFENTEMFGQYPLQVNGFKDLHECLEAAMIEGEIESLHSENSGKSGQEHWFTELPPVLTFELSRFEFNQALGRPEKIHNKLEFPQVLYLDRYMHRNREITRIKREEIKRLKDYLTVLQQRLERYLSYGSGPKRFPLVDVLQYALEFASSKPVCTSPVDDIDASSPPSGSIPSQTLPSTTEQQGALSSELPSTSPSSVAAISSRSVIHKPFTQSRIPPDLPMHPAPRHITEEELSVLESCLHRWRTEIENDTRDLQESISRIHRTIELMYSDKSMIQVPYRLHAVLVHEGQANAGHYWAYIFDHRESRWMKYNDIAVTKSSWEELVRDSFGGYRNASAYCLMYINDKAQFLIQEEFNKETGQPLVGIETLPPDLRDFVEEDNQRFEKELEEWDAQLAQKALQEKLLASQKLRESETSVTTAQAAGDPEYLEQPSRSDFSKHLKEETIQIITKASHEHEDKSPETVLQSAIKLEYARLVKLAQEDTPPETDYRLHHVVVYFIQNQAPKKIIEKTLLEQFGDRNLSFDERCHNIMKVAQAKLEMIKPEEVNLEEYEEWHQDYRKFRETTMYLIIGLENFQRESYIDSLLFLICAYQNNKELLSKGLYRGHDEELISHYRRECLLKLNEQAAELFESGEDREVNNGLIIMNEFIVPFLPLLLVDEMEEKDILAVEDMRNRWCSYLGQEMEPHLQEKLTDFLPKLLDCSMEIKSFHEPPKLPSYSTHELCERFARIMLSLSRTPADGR

Results are given in words; binding and its absence hold for the method and conditions named. For some assays here: Binding seen in cells or lysates may run through a third protein. Some binding calls cover weakened binding; strength is not graded here.

The target in one test is USP25 (as used for SPR) (UniProt Q9UHP3). In words: SPR; kinetic interaction of the SH peptides and USP25; who was immobilised and the conditions are not stated; both purified. Background: Surface plasmon resonance follows binding to a sensor surface in real time, without labels.
Test [1] has as its target HA-USP25 (USP25^WT in PLVX-CMV-HA) (UniProt Q9UHP3). The experiment in a line: co-IP; cell lysates on HA resin (HA-USP25), immunoprecipitates blotted for TRIM25, HECTD3, NEDD4L and WWP2.

B1: SH-2 peptide (peptide)
peptide: EKQHKNLENYKVPESI
On to B1, for which the binding entry in the test with USP25 (as used for SPR) is “binds”.

B2: SH-1 peptide (peptide)
peptide: MSVADPWKKIQLLYS
In the case of B2, the binding result with USP25 (as used for SPR) is “binds”.

B3: HECTD3 (enzyme, UniProt Q5T447 1-861)
chain: MAGPGPGAVLESPRQLLGRVRFLAEAARSLRAGRPLPAALAFVPREVLYKLYKDPAGPSRVLLPVWEAEGLGLRVGAAGPAPGTGSGPLRAARDSIELRRGACVRTTGEELCNGHGLWVKLTKEQLAEHLGDCGLQEGWLLVCRPAEGGARLVPIDTPNHLQRQQQLFGVDYRPVLRWEQVVDLTYSHRLGSRPQPAEAYAEAVQRLLYVPPTWTYECDEDLIHFLYDHLGKEDENLGSVKQYVESIDVSSYTEEFNVSCLTDSNADTYWESDGSQCQHWVRLTMKKGTIVKKLLLTVDTTDDNFMPKRVVVYGGEGDNLKKLSDVSIDETLIGDVCVLEDMTVHLPIIEIRIVECRDDGIDVRLRGVKIKSSRQRELGLNADLFQPTSLVRYPRLEGTDPEVLYRRAVLLQRFIKILDSVLHHLVPAWDHTLGTFSEIKQVKQFLLLSRQRPGLVAQCLRDSESSKPSFMPRLYINRRLAMEHRACPSRDPACKNAVFTQVYEGLKPSDKYEKPLDYRWPMRYDQWWECKFIAEGIIDQGGGFRDSLADMSEELCPSSADTPVPLPFFVRTANQGNGTGEARDMYVPNPSCRDFAKYEWIGQLMGAALRGKEFLVLALPGFVWKQLSGEEVSWSKDFPAVDSVLVKLLEVMEGMDKETFEFKFGKELTFTTVLSDQQVVELIPGGAGIVVGYGDRSRFIQLVQKARLEESKEQVAAMQAGLLKVVPQAVLDLLTWQELEKKVCGDPEVTVDALRKLTRFEDFEPSDSRVQYFWEALNNFTNEDRSRFLRFVTGRSRLPARIYIYPDKLGYETTDALPESSTCSSTLFLPHYASAKVCEEKLRYAAYNCVAIDTDMSPWEE
B3: in test [1], the binding result is given as “binds”.

B4: SH-3 peptide (peptide)
peptide: FTEEEKYQKLLSENK
For the molecule B4, in the test with USP25 (as used for SPR), the binding entry is reported as “binds”.

B5: SH-4 peptide (peptide)
peptide: KNFNTNLFQLGHKCA
In the case of B5, the binding entry in the test with USP25 (as used for SPR) is “binds”.
